Measurements: US20030144208A1
These are yes or no findings as the source states them, for the method shown. Some results given as binding are weak or reduced against the parent protein; the word gives no strength.

Sequences of proteins named here, by UniProt entry; tags and fusion partners are left off. A change or cut given only in a name is not applied to a line headed by its entry. Residues count along the entry.
UniProt P02458, residues 182-1241: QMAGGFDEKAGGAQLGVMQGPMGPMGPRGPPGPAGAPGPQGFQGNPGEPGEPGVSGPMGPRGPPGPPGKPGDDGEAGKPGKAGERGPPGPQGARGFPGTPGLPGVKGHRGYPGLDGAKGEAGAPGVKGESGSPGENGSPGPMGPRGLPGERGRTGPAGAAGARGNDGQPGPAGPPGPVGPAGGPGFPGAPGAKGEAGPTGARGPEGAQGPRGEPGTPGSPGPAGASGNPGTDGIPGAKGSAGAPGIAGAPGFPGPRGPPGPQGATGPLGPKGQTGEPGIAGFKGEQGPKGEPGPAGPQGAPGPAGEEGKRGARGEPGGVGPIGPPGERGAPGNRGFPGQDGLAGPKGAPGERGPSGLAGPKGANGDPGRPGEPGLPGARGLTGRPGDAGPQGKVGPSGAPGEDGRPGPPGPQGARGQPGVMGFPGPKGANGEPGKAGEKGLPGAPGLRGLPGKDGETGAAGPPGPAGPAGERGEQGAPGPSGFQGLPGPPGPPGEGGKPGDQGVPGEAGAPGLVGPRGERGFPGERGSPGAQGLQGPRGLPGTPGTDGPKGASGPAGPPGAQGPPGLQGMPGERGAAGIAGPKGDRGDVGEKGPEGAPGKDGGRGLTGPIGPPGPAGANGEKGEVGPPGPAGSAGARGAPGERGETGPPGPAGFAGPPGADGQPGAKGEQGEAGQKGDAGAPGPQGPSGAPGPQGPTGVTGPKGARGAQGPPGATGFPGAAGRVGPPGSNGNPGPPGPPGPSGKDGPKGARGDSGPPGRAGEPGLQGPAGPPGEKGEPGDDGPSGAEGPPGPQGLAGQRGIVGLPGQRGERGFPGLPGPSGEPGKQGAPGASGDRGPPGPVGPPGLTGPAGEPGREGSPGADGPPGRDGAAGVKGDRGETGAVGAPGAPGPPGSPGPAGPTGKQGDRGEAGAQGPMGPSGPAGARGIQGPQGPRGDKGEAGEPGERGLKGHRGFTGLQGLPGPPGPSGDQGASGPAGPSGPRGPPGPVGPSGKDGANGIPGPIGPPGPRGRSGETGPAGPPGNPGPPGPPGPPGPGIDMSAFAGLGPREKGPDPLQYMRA
UniProt P02461, residues 154-1221: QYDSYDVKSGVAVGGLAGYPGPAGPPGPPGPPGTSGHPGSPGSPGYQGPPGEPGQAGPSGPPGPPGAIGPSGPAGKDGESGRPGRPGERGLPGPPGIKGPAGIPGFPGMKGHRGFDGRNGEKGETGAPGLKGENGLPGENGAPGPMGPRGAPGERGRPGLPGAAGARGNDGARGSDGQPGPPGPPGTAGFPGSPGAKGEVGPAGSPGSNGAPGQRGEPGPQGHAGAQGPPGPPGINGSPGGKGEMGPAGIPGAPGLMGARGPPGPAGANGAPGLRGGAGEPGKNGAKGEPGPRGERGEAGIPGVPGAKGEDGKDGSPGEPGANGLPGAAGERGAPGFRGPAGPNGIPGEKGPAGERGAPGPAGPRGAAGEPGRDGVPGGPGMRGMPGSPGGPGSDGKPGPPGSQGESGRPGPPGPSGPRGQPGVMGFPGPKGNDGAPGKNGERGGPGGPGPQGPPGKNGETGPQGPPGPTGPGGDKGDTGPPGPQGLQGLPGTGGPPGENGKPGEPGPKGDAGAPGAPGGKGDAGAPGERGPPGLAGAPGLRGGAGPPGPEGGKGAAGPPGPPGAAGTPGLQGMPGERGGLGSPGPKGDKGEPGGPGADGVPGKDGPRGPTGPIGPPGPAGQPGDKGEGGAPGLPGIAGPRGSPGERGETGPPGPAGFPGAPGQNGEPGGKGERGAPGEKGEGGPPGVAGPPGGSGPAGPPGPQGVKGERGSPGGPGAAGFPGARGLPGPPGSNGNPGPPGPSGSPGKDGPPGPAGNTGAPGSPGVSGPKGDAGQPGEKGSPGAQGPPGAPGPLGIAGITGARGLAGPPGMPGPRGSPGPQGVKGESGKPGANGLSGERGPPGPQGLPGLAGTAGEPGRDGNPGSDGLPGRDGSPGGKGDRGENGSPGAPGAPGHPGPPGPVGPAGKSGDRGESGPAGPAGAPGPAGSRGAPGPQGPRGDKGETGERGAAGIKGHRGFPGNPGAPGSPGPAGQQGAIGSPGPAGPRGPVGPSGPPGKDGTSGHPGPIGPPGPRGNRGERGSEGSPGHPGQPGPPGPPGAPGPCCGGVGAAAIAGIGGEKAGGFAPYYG
UniProt P02453: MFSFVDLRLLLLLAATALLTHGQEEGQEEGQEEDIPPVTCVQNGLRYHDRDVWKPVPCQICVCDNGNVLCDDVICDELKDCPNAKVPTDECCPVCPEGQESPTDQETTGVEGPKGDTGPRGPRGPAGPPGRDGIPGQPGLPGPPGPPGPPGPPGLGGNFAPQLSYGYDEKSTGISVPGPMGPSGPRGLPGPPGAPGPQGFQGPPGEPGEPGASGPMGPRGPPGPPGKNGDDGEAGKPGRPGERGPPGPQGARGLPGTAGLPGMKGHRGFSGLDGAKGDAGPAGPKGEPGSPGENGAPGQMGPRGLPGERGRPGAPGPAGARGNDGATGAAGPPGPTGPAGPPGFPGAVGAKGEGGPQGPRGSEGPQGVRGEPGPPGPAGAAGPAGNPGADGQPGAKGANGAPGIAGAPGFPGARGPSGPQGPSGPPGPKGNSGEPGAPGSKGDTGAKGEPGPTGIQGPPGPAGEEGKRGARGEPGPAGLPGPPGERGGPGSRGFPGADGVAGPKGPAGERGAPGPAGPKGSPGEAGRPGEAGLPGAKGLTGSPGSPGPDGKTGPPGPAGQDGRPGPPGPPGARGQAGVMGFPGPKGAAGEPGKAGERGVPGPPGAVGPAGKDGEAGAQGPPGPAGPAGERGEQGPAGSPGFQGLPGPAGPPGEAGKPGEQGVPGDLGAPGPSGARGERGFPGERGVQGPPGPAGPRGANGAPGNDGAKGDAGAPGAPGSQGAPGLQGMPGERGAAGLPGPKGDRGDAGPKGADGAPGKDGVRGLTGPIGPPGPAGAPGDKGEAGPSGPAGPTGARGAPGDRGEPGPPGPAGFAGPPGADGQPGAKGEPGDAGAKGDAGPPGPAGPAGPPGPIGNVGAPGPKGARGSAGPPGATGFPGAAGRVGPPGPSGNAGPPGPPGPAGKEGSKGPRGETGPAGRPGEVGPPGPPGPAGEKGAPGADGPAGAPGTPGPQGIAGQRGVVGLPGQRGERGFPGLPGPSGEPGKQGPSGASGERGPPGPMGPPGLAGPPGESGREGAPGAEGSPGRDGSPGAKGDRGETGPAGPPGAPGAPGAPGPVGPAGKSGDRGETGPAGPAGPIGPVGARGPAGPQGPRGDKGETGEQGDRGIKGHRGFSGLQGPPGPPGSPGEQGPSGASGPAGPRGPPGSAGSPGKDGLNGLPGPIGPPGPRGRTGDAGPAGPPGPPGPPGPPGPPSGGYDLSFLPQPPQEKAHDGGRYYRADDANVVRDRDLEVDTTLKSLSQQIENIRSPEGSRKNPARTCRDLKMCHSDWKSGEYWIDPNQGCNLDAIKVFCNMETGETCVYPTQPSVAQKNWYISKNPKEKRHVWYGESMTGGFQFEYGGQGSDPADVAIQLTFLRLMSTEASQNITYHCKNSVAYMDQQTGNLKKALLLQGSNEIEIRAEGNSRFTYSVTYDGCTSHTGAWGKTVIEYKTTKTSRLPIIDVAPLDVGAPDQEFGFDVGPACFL
UniProt P02465: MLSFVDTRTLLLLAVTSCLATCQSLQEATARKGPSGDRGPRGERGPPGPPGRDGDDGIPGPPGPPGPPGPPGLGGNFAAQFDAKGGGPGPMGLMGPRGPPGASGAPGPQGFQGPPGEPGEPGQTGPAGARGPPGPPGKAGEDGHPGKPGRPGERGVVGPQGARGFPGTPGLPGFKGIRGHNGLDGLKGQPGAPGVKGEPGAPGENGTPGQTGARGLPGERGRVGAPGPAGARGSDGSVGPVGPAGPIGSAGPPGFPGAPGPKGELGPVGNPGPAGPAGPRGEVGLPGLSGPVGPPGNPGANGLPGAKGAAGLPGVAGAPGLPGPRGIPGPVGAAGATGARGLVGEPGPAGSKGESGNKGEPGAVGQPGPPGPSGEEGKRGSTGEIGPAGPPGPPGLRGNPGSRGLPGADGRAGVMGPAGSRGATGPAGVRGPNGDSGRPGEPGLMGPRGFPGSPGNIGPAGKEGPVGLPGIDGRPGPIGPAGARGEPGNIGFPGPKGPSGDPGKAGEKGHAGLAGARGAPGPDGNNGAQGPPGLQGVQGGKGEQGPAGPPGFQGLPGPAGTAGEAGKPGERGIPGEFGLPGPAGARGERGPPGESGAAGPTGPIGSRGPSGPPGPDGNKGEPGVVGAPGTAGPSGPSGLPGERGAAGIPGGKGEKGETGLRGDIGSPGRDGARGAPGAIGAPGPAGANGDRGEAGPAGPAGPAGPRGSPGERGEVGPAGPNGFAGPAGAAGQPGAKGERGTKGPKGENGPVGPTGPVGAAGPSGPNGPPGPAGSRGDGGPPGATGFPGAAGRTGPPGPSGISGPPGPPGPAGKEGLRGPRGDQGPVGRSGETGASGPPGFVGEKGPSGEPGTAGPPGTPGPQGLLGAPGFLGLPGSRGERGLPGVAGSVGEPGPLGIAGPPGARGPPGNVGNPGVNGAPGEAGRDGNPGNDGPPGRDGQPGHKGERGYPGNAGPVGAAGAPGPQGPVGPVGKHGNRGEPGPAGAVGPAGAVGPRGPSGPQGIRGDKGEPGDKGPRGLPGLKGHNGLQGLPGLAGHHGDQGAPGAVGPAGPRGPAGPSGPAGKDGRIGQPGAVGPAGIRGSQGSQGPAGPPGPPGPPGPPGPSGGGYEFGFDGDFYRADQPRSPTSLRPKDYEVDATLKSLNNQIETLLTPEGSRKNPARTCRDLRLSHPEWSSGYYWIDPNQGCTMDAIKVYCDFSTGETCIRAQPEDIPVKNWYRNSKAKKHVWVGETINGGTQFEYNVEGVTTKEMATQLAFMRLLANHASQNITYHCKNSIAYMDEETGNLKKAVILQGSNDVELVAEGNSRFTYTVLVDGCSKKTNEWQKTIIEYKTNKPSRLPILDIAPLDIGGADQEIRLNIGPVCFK

What was measured:
Experiment in all cases: ELISA on plated matrix protein, 1.8 ug/ml zsig37-FITC, chemiluminescence on film
[1] = target: human collagen Type II (Chemicon International) (human) (UniProt P02458)
[2] = target: human collagen Type III (Chemicon International) (human) (UniProt P02461)
[3] = target: Bovine Collagen Type I (Becton Dickinson) (bovine) (UniProt P02453+P02465)

Measured: binding

B1: zsig37-FITC (ligand)
chain: LVLSRVPHVQGEQQEWEGTEELPSPPDHAERAEEQHEKYRPSQDQGLPASRCLRCCDPGTSMYPATAVPQINITILKGEKGDRGDRGLQGKYGKTGSAGARGHTGPKGQKGSMGAPGERCKSHYAAFSVGRKKPMHSNHYYQTVIFDTEFVNLYDHFNMFTGKFYCYVPGLYFFSLNVHTWNQKETYLHIMKNEEEVVILFAQVGDRSIMQSQSLMLELREQDQVWVRLYKGERENAIFSEELDTYITFSGYLVKHATEP
modifications: FITC label (sites not given)
binds: all assays above
